Test results published in article PMC5385552.
These are yes or no findings as the source states them, for the method shown. In cells and extracts the contact can be indirect. A yes stands for co-enrichment or nearness to the bait. Other partners may have been found. Where a sequence is shown, tags or fusion partners need not be part of it.

Target: T1, GST-fused recombinant LIMR (lipocalin-1 interacting membrane receptor) (UniProt Q6UX01)
T1 sequence: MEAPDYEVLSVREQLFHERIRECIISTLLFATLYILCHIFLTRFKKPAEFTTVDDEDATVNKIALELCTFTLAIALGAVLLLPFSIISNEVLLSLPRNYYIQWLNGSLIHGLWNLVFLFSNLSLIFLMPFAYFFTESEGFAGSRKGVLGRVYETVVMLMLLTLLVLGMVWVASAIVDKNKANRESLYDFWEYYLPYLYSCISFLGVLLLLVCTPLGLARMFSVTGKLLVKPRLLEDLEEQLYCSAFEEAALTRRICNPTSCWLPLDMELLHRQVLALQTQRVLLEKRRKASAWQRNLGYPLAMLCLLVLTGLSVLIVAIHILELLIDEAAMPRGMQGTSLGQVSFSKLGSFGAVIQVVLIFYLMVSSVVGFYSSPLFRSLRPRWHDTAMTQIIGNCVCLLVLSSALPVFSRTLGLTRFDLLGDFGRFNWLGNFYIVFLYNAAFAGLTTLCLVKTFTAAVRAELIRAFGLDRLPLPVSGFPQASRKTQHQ
Experiment: affinity purification with mass spectrometry; GST pull-down: 10 ug purified GST-LIMR (or control GST) incubated with 1 mg THP-1 cell lysate at 4 °C for 2 h; SDS-PAGE, Coomassie staining, band identified by mass spectrometry; only the target purified

B1: aryl hydrocarbon receptor repressor (AHRR), endogenous in THP-1 cells (protein, UniProt A9YTQ3 1-697)
chain: MIPPGECTYAGRKRRRPLQKQRPAVGAEKSNPSKRHRDRLNAELDHLASLLPFPPDIISKLDKLSVLRLSVSYLRVKSFFQVVQEQSSRQPAAGAPSPGDSCPLAGSAVLEGRLLLESLNGFALVVSAEGTIFYASATIVDYLGFHQTDVMHQNIYDYIHVDDRQDFCRQLHWAMDPPQVVFGQPPPLETGDDAILGRLLRAQEWGTGTPTEYSAFLTRCFICRVRCLLDSTSGFLTMQFQGKLKFLFGQKKKAPSGAMLPPRLSLFCIAAPVLLPSAAEMKMRSALLRAKPRADTAATADAKVKATTSLCESELHGKPNYSAGRSSRESGVLVLREQTDAGRWAQVPARAPCLCLRGGPDLVLDPKGGSGDREEEQHRMLSRASGVTGRRETPGPTKPLPWTAGKHSEDGARPRLQPSKNDPPSLRPMPRGSCLPCPCVQGTFRNSPISHPPSPSPSAYSSRTSRPMRDVGEDQVHPPLCHFPQRSLQHQLPQPGAQRFATRGYPMEDMKLQGVPMPPGDLCGPTLLLDVSIKMEKDSGCEGAADGCVPSQVWLGASDRSHPATFPTRMHLKTEPDSRQQVYISHLGHGVRGAQPHGRATAGRSRELTPFHPAHCACLEPTDGLPQSEPPHQLCARGRGEQSCTCRAAEAAPVVKREPLDSPQWATHSQGMVPGMLPKSALATLVPPQASGCTFLP
Which binding does the source give for B1 here?
Its binding is “binds”.
